PubChem BioAssay AID1508597 – Cure First | 2020

Aim: 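Knock-downs altering ovarian cancer cell survival with or without PARP inhibitor rucaparib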 (primary screen)
Cells: human ovarian carcinoma lines grown from tumours: OCI-P5x (papillary serous) and OCI-C5x (clear cell)
Reagent: siRNA pool against human genes, 1.25 pmol siRNA per well
Time to read-out: 72 h or 96 h, depending on the cell culture
Challenge: rucaparib 20 µM (about IC30) or vehicle, present until read-out
Rucaparib or vehicle: Rucaparib
Cell line: OCI-C5x (clear cell)
Measured: 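ATP luminescence measured at 72 or 96 h according to the culture, then normalised and expressed as percent viability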
Scale: viability, normalised: higher = more viable cells remaining
Active means: 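a well counts as a hit if its normalised viability is under 80 percent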
Calls: active = viability under 80%; inactive = viability 80% or more
Shown is a random part of the about 2,100 reagents, under one of the conditions tested. 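Calls flag viability under 80% in either arm, not effects specific to rucaparib; the reference for percent is not stated.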 Entries without a mark were called inactive. A reagent listed more than once was tested more than once; the source does not tell the runs apart. Not stated in the record: the 100% reference.

gene knocked down	technical replicate	viability, normalised (%)
DHX9 (GeneID 1660)	1	47.7 (active)
DHX9 (GeneID 1660)	1	87.3
DHX9 (GeneID 1660)	2	43 (active)
DHX9 (GeneID 1660)	2	68.4 (active)
DHX9 (GeneID 1660)	3	60.8 (active)
DHX9 (GeneID 1660)	3	40.1 (active)
MYB (GeneID 4602)	1	15.5 (active)
MYB (GeneID 4602)	2	22.4 (active)
MYB (GeneID 4602)	3	25.9 (active)
GNRHR (GeneID 2798)	1	42.5 (active)
GNRHR (GeneID 2798)	2	34.6 (active)
GNRHR (GeneID 2798)	3	37.6 (active)
DDX23 (GeneID 9416)	1	61.7 (active)
DDX23 (GeneID 9416)	2	45.7 (active)
DDX23 (GeneID 9416)	3	40.4 (active)
CDYL (GeneID 9425)	1	63.2 (active)
CDYL (GeneID 9425)	2	50.1 (active)
CDYL (GeneID 9425)	3	34.6 (active)
PNKP (GeneID 11284)	1	34.6 (active)
PNKP (GeneID 11284)	2	36.6 (active)
PNKP (GeneID 11284)	3	35.7 (active)
CDCA8 (GeneID 55143)	1	56.7 (active)
CDCA8 (GeneID 55143)	2	56.3 (active)
CDCA8 (GeneID 55143)	3	36.7 (active)
MYO6 (GeneID 4646)	1	47.6 (active)
MYO6 (GeneID 4646)	2	36.5 (active)
MYO6 (GeneID 4646)	3	40.1 (active)

Next part (8 carried over from the part before).
gene knocked down	technical replicate	viability, normalised (%)
PNKP (GeneID 11284)	2	36.6 (active)
PNKP (GeneID 11284)	3	35.7 (active)
CDCA8 (GeneID 55143)	1	56.7 (active)
CDCA8 (GeneID 55143)	2	56.3 (active)
CDCA8 (GeneID 55143)	3	36.7 (active)
MYO6 (GeneID 4646)	1	47.6 (active)
MYO6 (GeneID 4646)	2	36.5 (active)
MYO6 (GeneID 4646)	3	40.1 (active)
CTNNB1 (GeneID 1499)	1	55.5 (active)
CTNNB1 (GeneID 1499)	2	59.4 (active)
CTNNB1 (GeneID 1499)	3	44.5 (active)
MED18 (GeneID 54797)	1	40.7 (active)
MED18 (GeneID 54797)	2	36.8 (active)
MED18 (GeneID 54797)	3	42.6 (active)
CDH1 (GeneID 999)	1	62.7 (active)
CDH1 (GeneID 999)	2	60.1 (active)
CDH1 (GeneID 999)	3	42.2 (active)
EVI5L (GeneID 115704)	1	53.7 (active)
EVI5L (GeneID 115704)	2	41.5 (active)
EVI5L (GeneID 115704)	3	56.8 (active)
UBE2I (GeneID 7329)	1	47 (active)
UBE2I (GeneID 7329)	1	51.1 (active)
UBE2I (GeneID 7329)	2	41 (active)
UBE2I (GeneID 7329)	2	46.6 (active)
UBE2I (GeneID 7329)	3	50.6 (active)
UBE2I (GeneID 7329)	3	59.3 (active)
WNT4 (GeneID 54361)	1	77.9 (active)
WNT4 (GeneID 54361)	2	62.7 (active)
WNT4 (GeneID 54361)	3	48.8 (active)
DDX27 (GeneID 55661)	1	65.1 (active)
DDX27 (GeneID 55661)	2	44.7 (active)
DDX27 (GeneID 55661)	3	50.6 (active)
MED13 (GeneID 9969)	1	49.1 (active)
MED13 (GeneID 9969)	2	55.5 (active)
MED13 (GeneID 9969)	3	44.5 (active)
PHF21B (GeneID 112885)	1	53.1 (active)
PHF21B (GeneID 112885)	2	49.9 (active)
PHF21B (GeneID 112885)	3	39.9 (active)
